Source: the supplement of paper PMC10849652
The list shows a part of the results.

The chains behind the UniProt entries cited, without tags or fusion partners. Where a name states a change or a piece, a line headed by the entry shows the natural chain unless it says otherwise.
UniProt Q96CT7: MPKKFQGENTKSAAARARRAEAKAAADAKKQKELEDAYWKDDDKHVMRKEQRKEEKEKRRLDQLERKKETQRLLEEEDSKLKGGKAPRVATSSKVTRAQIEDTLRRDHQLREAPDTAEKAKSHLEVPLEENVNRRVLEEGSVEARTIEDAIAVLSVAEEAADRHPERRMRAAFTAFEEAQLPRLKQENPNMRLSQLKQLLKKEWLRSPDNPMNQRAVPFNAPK
UniProt P40227, whole entry, looked up: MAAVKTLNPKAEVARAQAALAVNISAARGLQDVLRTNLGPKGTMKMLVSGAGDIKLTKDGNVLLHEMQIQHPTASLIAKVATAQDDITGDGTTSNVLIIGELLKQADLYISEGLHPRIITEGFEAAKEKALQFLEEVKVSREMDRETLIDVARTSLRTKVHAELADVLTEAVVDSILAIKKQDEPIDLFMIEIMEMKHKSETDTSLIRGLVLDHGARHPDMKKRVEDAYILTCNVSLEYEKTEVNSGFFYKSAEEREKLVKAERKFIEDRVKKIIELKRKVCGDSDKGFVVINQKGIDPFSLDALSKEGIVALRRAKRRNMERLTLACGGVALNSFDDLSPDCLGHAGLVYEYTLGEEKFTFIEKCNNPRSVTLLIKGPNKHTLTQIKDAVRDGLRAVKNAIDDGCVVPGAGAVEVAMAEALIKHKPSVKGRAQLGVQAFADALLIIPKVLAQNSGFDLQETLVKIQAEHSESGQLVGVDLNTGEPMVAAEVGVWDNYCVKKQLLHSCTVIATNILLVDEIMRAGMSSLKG
UniProt Q6PII3: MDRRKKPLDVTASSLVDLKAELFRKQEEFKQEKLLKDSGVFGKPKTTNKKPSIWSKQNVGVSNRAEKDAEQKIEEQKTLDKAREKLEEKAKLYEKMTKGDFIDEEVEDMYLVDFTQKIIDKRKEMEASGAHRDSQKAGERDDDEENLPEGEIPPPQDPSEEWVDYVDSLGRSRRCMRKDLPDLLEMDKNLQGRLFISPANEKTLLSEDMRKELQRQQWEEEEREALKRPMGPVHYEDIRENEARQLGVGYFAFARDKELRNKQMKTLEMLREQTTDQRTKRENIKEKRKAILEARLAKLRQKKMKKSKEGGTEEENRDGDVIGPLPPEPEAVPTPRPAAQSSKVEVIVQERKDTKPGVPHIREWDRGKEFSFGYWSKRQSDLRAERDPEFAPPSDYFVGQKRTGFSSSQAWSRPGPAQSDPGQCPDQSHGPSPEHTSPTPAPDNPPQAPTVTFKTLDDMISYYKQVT
UniProt O15446, whole entry, looked up: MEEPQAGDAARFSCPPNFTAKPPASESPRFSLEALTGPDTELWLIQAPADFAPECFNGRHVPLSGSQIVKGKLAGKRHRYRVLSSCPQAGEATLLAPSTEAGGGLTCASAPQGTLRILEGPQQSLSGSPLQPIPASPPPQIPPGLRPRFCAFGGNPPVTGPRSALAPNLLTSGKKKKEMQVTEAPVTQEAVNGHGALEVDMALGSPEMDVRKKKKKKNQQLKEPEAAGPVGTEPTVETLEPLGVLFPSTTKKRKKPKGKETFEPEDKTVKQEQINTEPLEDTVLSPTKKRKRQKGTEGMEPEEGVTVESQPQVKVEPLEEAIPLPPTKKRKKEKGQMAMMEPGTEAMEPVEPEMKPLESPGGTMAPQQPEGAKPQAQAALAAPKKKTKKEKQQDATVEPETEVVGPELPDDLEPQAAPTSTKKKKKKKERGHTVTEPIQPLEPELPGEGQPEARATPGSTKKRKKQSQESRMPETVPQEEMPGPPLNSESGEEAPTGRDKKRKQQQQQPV
UniProt Q7Z6B0: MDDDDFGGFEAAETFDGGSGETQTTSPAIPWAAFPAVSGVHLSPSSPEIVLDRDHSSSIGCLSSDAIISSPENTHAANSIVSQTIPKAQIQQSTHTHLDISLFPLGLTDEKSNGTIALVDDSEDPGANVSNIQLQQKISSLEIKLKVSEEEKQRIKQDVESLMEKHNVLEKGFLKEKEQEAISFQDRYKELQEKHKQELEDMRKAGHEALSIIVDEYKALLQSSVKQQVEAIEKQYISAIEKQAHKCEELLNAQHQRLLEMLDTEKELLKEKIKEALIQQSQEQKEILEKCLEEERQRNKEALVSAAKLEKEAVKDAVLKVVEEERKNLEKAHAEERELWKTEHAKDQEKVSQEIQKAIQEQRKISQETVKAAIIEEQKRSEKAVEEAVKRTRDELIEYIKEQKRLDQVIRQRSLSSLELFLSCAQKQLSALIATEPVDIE
UniProt Q16543: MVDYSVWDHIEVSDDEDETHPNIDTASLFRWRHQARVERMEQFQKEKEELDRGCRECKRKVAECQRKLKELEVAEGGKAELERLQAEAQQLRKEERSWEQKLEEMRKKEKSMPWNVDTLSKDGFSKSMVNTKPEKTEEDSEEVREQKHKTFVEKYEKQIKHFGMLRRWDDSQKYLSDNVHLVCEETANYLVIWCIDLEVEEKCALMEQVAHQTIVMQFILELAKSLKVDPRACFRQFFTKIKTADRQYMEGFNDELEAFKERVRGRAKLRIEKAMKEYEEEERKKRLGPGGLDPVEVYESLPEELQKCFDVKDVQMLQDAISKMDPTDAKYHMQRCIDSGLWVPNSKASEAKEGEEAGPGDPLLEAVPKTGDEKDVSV
UniProt Q8WUD4: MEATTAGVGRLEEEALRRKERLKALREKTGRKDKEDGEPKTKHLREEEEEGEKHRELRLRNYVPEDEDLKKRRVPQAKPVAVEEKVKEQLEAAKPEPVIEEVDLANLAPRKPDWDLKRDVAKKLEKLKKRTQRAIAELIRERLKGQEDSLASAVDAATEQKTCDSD
UniProt Q96NT0: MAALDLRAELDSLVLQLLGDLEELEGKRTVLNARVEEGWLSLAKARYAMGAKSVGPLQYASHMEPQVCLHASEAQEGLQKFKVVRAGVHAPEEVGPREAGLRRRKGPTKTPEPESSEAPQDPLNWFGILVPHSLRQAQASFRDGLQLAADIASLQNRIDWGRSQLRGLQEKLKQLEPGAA
UniProt P48960: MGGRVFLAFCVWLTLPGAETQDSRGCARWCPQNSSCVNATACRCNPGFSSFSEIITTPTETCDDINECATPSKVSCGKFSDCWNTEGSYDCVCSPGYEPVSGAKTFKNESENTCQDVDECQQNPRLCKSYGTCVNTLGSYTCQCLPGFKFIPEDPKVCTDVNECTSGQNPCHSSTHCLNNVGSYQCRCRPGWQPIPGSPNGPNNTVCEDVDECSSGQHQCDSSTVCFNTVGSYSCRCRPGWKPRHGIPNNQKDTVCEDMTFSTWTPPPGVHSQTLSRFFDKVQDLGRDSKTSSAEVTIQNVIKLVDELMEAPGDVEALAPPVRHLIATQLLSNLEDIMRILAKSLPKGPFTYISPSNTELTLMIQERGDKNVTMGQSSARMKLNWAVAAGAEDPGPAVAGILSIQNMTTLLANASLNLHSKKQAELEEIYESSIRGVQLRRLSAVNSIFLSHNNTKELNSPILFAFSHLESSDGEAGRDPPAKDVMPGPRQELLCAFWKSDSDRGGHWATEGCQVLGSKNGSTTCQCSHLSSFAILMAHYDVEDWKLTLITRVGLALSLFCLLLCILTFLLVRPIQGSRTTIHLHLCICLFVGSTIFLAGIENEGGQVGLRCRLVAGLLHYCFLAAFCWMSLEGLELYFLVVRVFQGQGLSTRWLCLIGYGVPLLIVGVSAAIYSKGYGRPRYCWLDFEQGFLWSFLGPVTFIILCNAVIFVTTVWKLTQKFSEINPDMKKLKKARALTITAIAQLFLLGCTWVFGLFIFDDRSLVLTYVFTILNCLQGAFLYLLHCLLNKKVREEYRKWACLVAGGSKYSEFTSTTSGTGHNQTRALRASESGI
UniProt Q9BRT8: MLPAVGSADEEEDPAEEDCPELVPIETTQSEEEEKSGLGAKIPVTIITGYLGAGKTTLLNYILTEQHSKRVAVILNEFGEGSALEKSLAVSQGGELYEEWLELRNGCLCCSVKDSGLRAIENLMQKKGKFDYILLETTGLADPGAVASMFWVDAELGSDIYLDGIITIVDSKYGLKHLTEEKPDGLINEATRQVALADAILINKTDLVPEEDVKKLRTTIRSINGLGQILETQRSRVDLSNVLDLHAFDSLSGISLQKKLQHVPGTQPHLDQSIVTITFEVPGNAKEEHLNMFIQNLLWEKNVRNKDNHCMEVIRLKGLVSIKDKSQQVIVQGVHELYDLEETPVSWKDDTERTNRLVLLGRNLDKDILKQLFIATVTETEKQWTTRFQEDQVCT
UniProt Q9UJX2, whole entry, looked up: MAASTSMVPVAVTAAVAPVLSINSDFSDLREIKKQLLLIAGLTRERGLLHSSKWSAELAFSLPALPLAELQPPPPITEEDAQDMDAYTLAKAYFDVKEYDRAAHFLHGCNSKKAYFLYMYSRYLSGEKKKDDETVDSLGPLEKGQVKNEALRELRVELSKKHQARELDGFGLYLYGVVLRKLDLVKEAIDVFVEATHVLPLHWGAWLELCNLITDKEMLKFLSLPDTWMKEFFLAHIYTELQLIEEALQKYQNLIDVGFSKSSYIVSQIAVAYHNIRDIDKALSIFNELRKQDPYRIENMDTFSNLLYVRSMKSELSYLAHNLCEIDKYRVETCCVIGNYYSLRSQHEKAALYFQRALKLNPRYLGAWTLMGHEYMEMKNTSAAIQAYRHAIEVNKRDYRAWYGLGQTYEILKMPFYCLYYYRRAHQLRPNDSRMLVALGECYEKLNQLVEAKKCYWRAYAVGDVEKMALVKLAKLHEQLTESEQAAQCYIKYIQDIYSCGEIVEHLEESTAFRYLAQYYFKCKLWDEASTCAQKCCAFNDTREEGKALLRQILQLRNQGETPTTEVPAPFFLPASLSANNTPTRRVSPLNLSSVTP
UniProt P49427: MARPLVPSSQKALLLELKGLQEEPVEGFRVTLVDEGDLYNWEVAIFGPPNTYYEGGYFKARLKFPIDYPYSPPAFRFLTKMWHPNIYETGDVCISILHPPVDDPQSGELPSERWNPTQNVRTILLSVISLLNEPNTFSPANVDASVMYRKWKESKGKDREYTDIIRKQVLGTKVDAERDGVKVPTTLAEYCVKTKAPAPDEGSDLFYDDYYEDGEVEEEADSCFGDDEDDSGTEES
UniProt P49368: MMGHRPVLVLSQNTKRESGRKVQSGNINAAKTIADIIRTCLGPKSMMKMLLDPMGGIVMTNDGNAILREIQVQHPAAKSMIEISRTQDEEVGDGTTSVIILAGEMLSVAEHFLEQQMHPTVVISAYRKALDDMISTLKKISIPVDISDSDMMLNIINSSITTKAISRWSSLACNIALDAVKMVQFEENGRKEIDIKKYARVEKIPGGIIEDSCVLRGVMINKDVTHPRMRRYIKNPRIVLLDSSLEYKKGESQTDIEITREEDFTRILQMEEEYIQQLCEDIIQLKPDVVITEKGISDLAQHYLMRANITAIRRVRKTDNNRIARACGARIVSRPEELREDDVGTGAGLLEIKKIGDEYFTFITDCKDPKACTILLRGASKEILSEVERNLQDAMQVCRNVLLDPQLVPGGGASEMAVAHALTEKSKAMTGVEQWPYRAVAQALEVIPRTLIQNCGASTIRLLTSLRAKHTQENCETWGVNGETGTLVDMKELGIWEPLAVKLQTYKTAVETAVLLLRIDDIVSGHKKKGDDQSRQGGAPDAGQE
UniProt Q9NPF0: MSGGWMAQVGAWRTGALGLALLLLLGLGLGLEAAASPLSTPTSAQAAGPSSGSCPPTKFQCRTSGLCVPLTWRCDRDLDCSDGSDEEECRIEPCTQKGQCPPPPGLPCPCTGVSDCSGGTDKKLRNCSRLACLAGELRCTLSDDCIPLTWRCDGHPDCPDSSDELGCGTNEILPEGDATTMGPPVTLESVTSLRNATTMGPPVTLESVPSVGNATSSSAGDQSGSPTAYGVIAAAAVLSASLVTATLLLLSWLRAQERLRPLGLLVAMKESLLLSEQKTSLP
UniProt P20810: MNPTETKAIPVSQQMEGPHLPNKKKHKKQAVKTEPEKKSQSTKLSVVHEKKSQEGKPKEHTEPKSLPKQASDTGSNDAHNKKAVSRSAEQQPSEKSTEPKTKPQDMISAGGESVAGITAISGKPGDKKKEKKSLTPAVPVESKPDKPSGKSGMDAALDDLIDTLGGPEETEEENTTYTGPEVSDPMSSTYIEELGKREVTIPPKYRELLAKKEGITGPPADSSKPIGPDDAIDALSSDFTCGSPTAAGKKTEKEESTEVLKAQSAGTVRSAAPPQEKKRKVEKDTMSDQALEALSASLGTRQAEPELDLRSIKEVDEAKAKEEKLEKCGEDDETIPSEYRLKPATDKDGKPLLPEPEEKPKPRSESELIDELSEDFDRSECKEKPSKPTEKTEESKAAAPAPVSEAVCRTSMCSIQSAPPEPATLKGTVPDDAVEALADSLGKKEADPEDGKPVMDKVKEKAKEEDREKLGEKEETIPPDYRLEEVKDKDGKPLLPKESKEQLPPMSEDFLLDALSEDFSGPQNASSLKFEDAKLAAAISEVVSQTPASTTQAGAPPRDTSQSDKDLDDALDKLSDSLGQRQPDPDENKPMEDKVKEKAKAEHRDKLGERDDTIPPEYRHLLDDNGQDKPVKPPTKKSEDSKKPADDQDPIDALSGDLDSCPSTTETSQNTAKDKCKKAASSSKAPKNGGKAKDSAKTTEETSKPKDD

Assays:
Experiment in all cases: log2 fold change, soluble protein after heating vs DMSO (PISA); higher = thermal stabilisation; K562 cells, 10 uM, 30 min; active = over 0.2 and 3.5 SD of the protein, either way, in both replicates (recomputed)
[1] = compound: CC[C@@H]1C(=O)N(C)c2cnc(Nc3ccc(C(=O)NC4CCN(C)CC4)cc3OC)nc2N1C1CCCC1
How it was run: (§1)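 K562 cells at 2×10^6 cells/mL were exposed to 10 μM compound for 30 min, then aliquots were heated for 3 min across 48°C-58°C, pooled, and extracted in PBS containing 0.5% NP-40 at 4°C. The supernatant after 21,000xg for 90 min was taken as soluble protein and measured by TMTpro 16plex LC-MS/MS with channel sums equalised. Thermal stability is reported relative to control samples, with values from duplicates. Fold changes are given on a log2 scale.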

volasertib = compound: CC[C@@H]1C(=O)N(C)c2cnc(Nc3ccc(C(=O)N[C@H]4CC[C@H](N5CCN(CC6CC6)CC5)CC4)cc3OC)nc2N1C(C)C [volasertib]
How it was run: as §1

[2] = compound: CC[C@H](C)N1C=C(C2=C(C=C(C=C21)C3=CN=C(C=C3)N4CCNCC4)C(=O)NCC5=C(C=C(NC5=O)C)C)C
How it was run: as §1

epoxomicin = compound: CC[C@H](C)[C@@H](C(=O)N[C@@H]([C@@H](C)O)C(=O)N[C@@H](CC(C)C)C(=O)[C@]1(CO1)C)NC(=O)[C@H]([C@@H](C)CC)N(C)C(=O)C [epoxomicin]
How it was run: as §1

[3] = compound: CCn1c(C(=O)N(C2CC2)C2CC2)cc2c3c(ncn3C)c(Nc3cc(C)n(C)n3)nc21
How it was run: as §1

[4] = compound: CCn1cc(-c2ccnc3[nH]c(-c4cccc(CN(C)C)c4)cc23)c(-c2ccc(NC(=O)N(C)C)cc2)n1
How it was run: as §1

[5] = compound: CN(C)CC(=O)Nc1ccc2[nH]c(=O)c3ccccc3c2c1
How it was run: as §1

rosiglitazone = compound: CN(CCOC1=CC=C(C=C1)C[C@H]2C(=O)NC(=O)S2)C3=CC=CC=N3 (racemic) [rosiglitazone]
How it was run: as §1

[6] = compound: CN1C2=C(C3=C1C(=O)N(N=C3)CC4=CC(=CC=C4)N)SC(=C2)S(=O)C
How it was run: as §1

[7] = compound: CN1CCC(CNc2ccc3ncc(-c4cccc(OC(F)(F)F)c4)n3n2)CC1
How it was run: as §1

saracatinib = compound: CN1CCN(CCOc2cc(OC3CCOCC3)c3c(Nc4c(Cl)ccc5c4OCO5)ncnc3c2)CC1 [saracatinib]
How it was run: as §1

sotrastaurin = compound: CN1CCN(c2nc(C3=C(c4c[nH]c5ccccc45)C(=O)NC3=O)c3ccccc3n2)CC1 [sotrastaurin]
How it was run: as §1

alvocidib = compound: CN1CC[C@H](c2c(O)cc(O)c3c(=O)cc(-c4ccccc4Cl)oc23)[C@H](O)C1 [alvocidib]
How it was run: as §1

Tubastatin A = compound: CN1CCc2c(c3ccccc3n2Cc2ccc(C(=O)NO)cc2)C1 [Tubastatin A]
How it was run: as §1

[8] = compound: CNC(=O)C1=CC=CC=C1NC2=NC(=NC=C2Cl)NC3=C(C=C(C=C3)N4CCOCC4)OC
How it was run: as §1

defactinib = compound: CNC(=O)c1ccc(Nc2ncc(C(F)(F)F)c(NCc3nccnc3N(C)S(C)(=O)=O)n2)cc1 [defactinib]
How it was run: as §1

rucaparib = compound: CNCc1ccc(-c2[nH]c3cc(F)cc4c3c2CCNC4=O)cc1 [rucaparib]
How it was run: as §1

[9] = compound: CNc1nc(-c2ccc3c(N)n[nH]c3c2)cc(N2C[C@@H](C(=O)NC3CCCCC3)CC[C@H]2C)n1
How it was run: as §1

encorafenib = compound: COC(=O)N[C@@H](C)CNc1nccc(-c2cn(C(C)C)nc2-c2cc(Cl)cc(NS(C)(=O)=O)c2F)n1 [encorafenib]
How it was run: as §1

[10] = compound: COC(=O)[C@H](CCSC)NC(=O)C1=C(C=C(C=C1)NC[C@H](CS)N)C2=CC=CC=C2
How it was run: as §1

Measured: log2 fold change

CCDC124 (UniProt Q96CT7)
inactive: [1] 0.047 | volasertib 0.093 | [2] -0.043 | epoxomicin -0.021 | [3] 0.024 | [4] 0.058 | [5] -0.063 | rosiglitazone -0.024 | [6] 0.003 | [7] 0.08 | saracatinib -0.014 | sotrastaurin 0.066 | alvocidib 0.067 | Tubastatin A 0.008 | [8] -0.017 | defactinib 0.042 | rucaparib 0.025 | [9] -0.017 | encorafenib -0.001 | [10] 0.018

CCT6A (UniProt P40227)
inactive: [1] -0.011 | volasertib -0.008 | [2] -0.006 | epoxomicin 0.022 | [3] -0.003 | [4] 0.066 | [5] -0.006 | rosiglitazone -0.001 | [6] -0.036 | [7] -0.036 | saracatinib 0.008 | sotrastaurin 0.022 | alvocidib 0.009 | Tubastatin A -0.009 | [8] -0.028 | defactinib 0.007 | rucaparib -0.02 | [9] 0 | encorafenib 0.007 | [10] 0.003

CAT (UniProt P04040)
inactive: [1] -0.013 | volasertib 0.04 | [2] -0.039 | epoxomicin -0.028 | [3] -0.006 | [4] -0.018 | [5] 0.001 | rosiglitazone -0.007 | [6] 0.033 | [7] 0.01 | saracatinib -0.001 | sotrastaurin 0.043 | alvocidib 0.005 | Tubastatin A -0.004 | [8] -0.046 | defactinib -0.015 | rucaparib -0.037 | [9] -0.022 | encorafenib -0.037 | [10] 0.014

CCDC174 (UniProt Q6PII3)
inactive: [1] -0.02 | volasertib 0.036 | [2] 0.006 | epoxomicin -0.012 | [3] 0.003 | [4] -0.008 | [5] -0.022 | rosiglitazone -0.033 | [6] -0.003 | [7] -0.033 | saracatinib 0.017 | sotrastaurin 0.065 | alvocidib 0.025 | Tubastatin A 0.072 | [8] -0.013 | defactinib -0.038 | rucaparib 0.06 | [9] 0.011 | encorafenib -0.035 | [10] 0.033

CD3EAP isoform 2 (UniProt O15446)
inactive: [1] 0.179 | volasertib 0.147 | [2] 0.022 | epoxomicin -0.164 | [3] 0.004 | [4] 0.124 | [5] -0.107 | rosiglitazone -0.093 | [6] 0.129 | [7] 0.062 | saracatinib -0.003 | sotrastaurin 0 | alvocidib 0.094 | Tubastatin A -0.044 | [8] 0.024 | defactinib 0.148 | rucaparib 0.183 | [9] -0.01 | encorafenib 0.062 | [10] 0.089

CCDC91 (UniProt Q7Z6B0)
inactive: [1] 0.081 | volasertib 0.019 | [2] 0.031 | epoxomicin 0.034 | [3] -0.031 | [4] -0.044 | [5] -0.034 | rosiglitazone 0 | [6] -0.038 | [7] 0.003 | saracatinib 0.017 | sotrastaurin 0.026 | alvocidib -0.02 | Tubastatin A -0.018 | [8] 0.012 | defactinib 0.027 | rucaparib -0.047 | [9] -0.026 | encorafenib -0.036 | [10] -0.001

CDC37 (UniProt Q16543)
inactive: [1] -0.027 | volasertib -0.024 | [2] 0.021 | epoxomicin 0.049 | [3] 0.009 | [4] 0.001 | [5] -0.004 | rosiglitazone 0.028 | [6] -0.06 | [7] 0.034 | saracatinib -0.018 | sotrastaurin -0.015 | alvocidib -0.097 | Tubastatin A -0.002 | [8] 0.012 | defactinib -0.003 | rucaparib -0.073 | [9] -0.019 | encorafenib -0.01 | [10] -0.003

CCDC12 (UniProt Q8WUD4)
inactive: [1] -0.027 | volasertib 0.082 | [2] -0.054 | epoxomicin 0.032 | [3] -0.021 | [4] -0.015 | [5] -0.011 | rosiglitazone 0 | [6] 0.002 | [7] -0.045 | saracatinib -0.024 | sotrastaurin 0.007 | alvocidib 0.056 | Tubastatin A -0.009 | [8] -0.048 | defactinib -0.019 | rucaparib 0.002 | [9] -0.012 | encorafenib -0.046 | [10] 0.065

CCDC115 (UniProt Q96NT0)
inactive: [1] 0.01 | volasertib 0.039 | [2] -0.025 | epoxomicin 0.073 | [3] -0.009 | [4] 0.02 | [5] 0.023 | rosiglitazone -0.022 | [6] 0.097 | [7] 0.219 | saracatinib 0.089 | sotrastaurin 0.01 | alvocidib -0.013 | Tubastatin A 0.007 | [8] 0 | defactinib -0.047 | rucaparib -0.004 | [9] 0.032 | encorafenib -0.021 | [10] -0.001

CD97 (UniProt P48960)
inactive: [1] -0.001 | volasertib 0.074 | [2] 0.008 | epoxomicin -0.006 | [3] -0.003 | [4] -0.05 | [5] 0.022 | rosiglitazone -0.047 | [6] 0.04 | [7] -0.172 | saracatinib -0.03 | sotrastaurin 0.066 | alvocidib 0.008 | Tubastatin A 0.031 | [8] -0.079 | defactinib -0.108 | rucaparib 0.011 | [9] -0.047 | encorafenib -0.043 | [10] 0.018

CBWD1 (UniProt Q9BRT8)
inactive: [1] 0.089 | volasertib -0.185 | [2] -0.04 | epoxomicin -0.035 | [3] -0.047 | [4] 0.122 | [5] -0.068 | rosiglitazone 0.122 | [6] 0.082 | [7] -0.175 | saracatinib -0.125 | sotrastaurin -0.092 | alvocidib 0.011 | Tubastatin A 0.113 | [8] -0.054 | defactinib 0.126 | rucaparib 0.144 | [9] 0.107 | encorafenib 0.031 | [10] -0.18

CDC23 (UniProt Q9UJX2)
inactive: [1] -0.014 | volasertib -0.074 | [2] 0.022 | epoxomicin -0.009 | [3] 0.031 | [4] 0.039 | [5] 0.001 | rosiglitazone -0.047 | [6] -0.004 | [7] 0.029 | saracatinib -0.012 | sotrastaurin 0.01 | alvocidib 0.004 | Tubastatin A 0.11 | [8] 0.054 | defactinib -0.029 | rucaparib 0.049 | [9] -0.016 | encorafenib 0.028 | [10] -0.025

CDC34 (UniProt P49427)
inactive: [1] -0.351 | volasertib -0.368 | [2] 0.038 | epoxomicin -0.158 | [3] -0.095 | [4] -0.052 | [5] 0.119 | rosiglitazone 0.15 | [6] 0.057 | [7] -0.358 | saracatinib -0.094 | sotrastaurin -0.138 | alvocidib 0.044 | Tubastatin A -0.111 | [8] 0.003 | defactinib -0.237 | rucaparib 0.092 | [9] -0.072 | encorafenib 0.098 | [10] -0.027

CCT3 (UniProt P49368)
inactive: [1] -0.007 | volasertib 0.011 | [2] -0.005 | epoxomicin -0.092 | [3] -0.011 | [4] 0.027 | [5] -0.003 | rosiglitazone 0.002 | [6] -0.03 | [7] -0.066 | saracatinib 0.015 | sotrastaurin 0.052 | alvocidib 0.001 | Tubastatin A -0.024 | [8] -0.025 | defactinib 0.003 | rucaparib 0.02 | [9] -0.018 | encorafenib -0.005 | [10] 0.023

CD320 (UniProt Q9NPF0)
inactive: [1] 0.027 | volasertib 0.077 | [2] -0.037 | epoxomicin 0.041 | [3] -0.011 | [4] -0.02 | [5] -0.024 | rosiglitazone 0.007 | [6] -0.049 | [7] -0.008 | saracatinib -0.001 | sotrastaurin 0.001 | alvocidib -0.019 | Tubastatin A -0.027 | [8] 0.006 | defactinib 0.058 | rucaparib 0.03 | [9] -0.083 | encorafenib 0.025 | [10] 0.058

CAST isoform 6 (UniProt P20810)
inactive: [1] 0.015 | volasertib 0.07 | [2] -0.048 | epoxomicin -0.003 | [3] -0.006 | [4] -0.011 | [5] -0.008 | rosiglitazone -0.008 | [6] -0.023 | [7] -0.062 | saracatinib 0 | sotrastaurin 0.069 | alvocidib 0.031 | Tubastatin A -0.006 | [8] -0.039 | defactinib -0.011 | rucaparib 0.02 | [9] -0.054 | encorafenib -0.037 | [10] 0.032

Quoted from the results shown (2 entries):
CD320 (UniProt Q9NPF0)
inactive: [1] 0.027 | volasertib 0.077 | [2] -0.037 | epoxomicin 0.041 | [3] -0.011 | [4] -0.02 | [5] -0.024 | rosiglitazone 0.007 | [6] -0.049 | [7] -0.008 | saracatinib -0.001 | sotrastaurin 0.001 | alvocidib -0.019 | Tubastatin A -0.027 | [8] 0.006 | defactinib 0.058 | rucaparib 0.03 | [9] -0.083 | encorafenib 0.025 | [10] 0.058

CAST isoform 6 (UniProt P20810)
inactive: [1] 0.015 | volasertib 0.07 | [2] -0.048 | epoxomicin -0.003 | [3] -0.006 | [4] -0.011 | [5] -0.008 | rosiglitazone -0.008 | [6] -0.023 | [7] -0.062 | saracatinib 0 | sotrastaurin 0.069 | alvocidib 0.031 | Tubastatin A -0.006 | [8] -0.039 | defactinib -0.011 | rucaparib 0.02 | [9] -0.054 | encorafenib -0.037 | [10] 0.032
